# Values quoted from earlier work in patent US7147837B2, “Bioactivated diagnostic imaging constrast agents” (Epix Pharmaceuticals, Inc., priority 1996, dated 2006).
# At least one compound was matched to its structure with a doubt left.
# Conditions: cited from earlier work
smiles,measurement,value
"O=C(O)CN1CCN(CC(=O)O)CCN(CC(=O)O)CCN(CC(=O)O)CC1.[Gd] [gadolinium DOTA, gadolinium (1,4,7,10-tetraazacyclotetradecene 1,4,7,10-tetracetic acid]",formation constant,10^25.3
